Measurements published in US20190211057A1.
No constants are given. Whether binding was seen depends on the method and setting. Some binding calls cover weakened binding; strength is not graded here.

The chains behind the UniProt entries cited, without tags or fusion partners. Where a name states a change or a piece, a line headed by the entry shows the natural chain unless it says otherwise.
UniProt P06756: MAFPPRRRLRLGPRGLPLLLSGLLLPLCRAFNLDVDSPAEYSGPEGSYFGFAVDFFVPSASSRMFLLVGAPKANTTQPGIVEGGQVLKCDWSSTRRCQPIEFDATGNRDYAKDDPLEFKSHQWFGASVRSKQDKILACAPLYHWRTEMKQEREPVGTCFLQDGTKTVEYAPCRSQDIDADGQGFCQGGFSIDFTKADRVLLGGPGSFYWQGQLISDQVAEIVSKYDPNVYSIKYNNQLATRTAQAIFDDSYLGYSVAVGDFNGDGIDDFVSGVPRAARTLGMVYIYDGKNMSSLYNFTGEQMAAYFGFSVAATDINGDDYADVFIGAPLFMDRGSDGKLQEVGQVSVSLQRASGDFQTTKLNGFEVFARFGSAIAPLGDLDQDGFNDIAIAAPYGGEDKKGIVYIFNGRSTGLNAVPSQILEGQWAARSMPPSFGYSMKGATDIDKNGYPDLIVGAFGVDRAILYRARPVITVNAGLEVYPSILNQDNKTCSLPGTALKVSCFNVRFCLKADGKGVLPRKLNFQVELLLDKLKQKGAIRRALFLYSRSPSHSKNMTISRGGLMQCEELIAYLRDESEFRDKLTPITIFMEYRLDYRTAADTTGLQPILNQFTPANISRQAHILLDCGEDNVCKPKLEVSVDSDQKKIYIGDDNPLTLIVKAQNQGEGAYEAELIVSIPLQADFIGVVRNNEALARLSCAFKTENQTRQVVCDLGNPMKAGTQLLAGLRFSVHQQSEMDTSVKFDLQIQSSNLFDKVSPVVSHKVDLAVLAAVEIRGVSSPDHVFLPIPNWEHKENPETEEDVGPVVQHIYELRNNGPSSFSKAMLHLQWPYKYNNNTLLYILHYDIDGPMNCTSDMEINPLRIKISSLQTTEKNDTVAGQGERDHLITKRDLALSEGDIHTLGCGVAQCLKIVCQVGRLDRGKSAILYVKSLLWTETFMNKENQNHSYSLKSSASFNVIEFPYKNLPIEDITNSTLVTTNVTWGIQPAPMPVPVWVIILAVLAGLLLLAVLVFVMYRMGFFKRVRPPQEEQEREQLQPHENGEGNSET

B1: RGD4C-yCD (protein)
chain: MACDCRGDCFCVTGGMASKWDQKGMDIAYEEAALGYKEGGVPIGGCLINNKDGSVLGRGHNMRFQKGSATLHGEISTLENCGRLEGKVYKDTTLYTTLSPCDMCTGAIIMYGIPRCVVGENVNFKSKGEKYLQTRGHEVVVVDDERCKKIMKQFIDERPQDWFEDIGELEHHHHHH
B2: DTPA-RGD4C-yCD (protein)
chain: B1 chain
modifications: DTPA on primary amines, 0.94 DTPA per protein on average
B3: In-DTPA-RGD4C-yCD (protein)
chain: B1 chain
modifications: DTPA on primary amines, loaded with the stable isotope of indium
B4: RGD4C-yCD/UPRT (protein)
chain: MACDCRGDCFCVTGGMASKWDQKGMDIAYEEAALGYKEGGVPIGGCLINNKDGSVLGRGHNMRFQKGSATLHGEISTLENCGRLEGKVYKDTTLYTTLSPCDMCTGAIIMYGIPRCVVGENVNFKSKGEKYLQTRGHEVVVVDDERCKKIMKQFIDERPQDWFEDIGEASEPFKNVYLLPQTNQLLGLYTIIRNKNTTRPDFIFYSDRIIRLLVEEGLNHLPVQKQIVETDTNENFEGVSFMGKICGVSIVRAGESMEQGLRDCCRSVRIGKILIQRDEETALPKLFYEKLPEDISERYVFLLDPMLATGGSAIMATEVLIKRGVKPERIYFLNLICSKEGIEKYHAAFPEVRIVTGALDRGLDENKYLVPGLGDFGDRYYCVLEHHHHHH

Target: integrin αvβ3 receptor (UniProt P06756)
Assay: ELISA on integrin αvβ3 receptor

binding, binds:
B1
B2
B3
B4
